From article PMC9644602
No constants are given. Whether binding was seen depends on the method and setting. For some assays here: In cells and extracts the contact can be indirect. Some binding calls cover weakened binding; strength is not graded here. For some assays here: Tags and fused reporters may be left off the sequences shown.

Protein sequences, listed by entry. Tags and fused reporters are not part of them.
UniProt P09874: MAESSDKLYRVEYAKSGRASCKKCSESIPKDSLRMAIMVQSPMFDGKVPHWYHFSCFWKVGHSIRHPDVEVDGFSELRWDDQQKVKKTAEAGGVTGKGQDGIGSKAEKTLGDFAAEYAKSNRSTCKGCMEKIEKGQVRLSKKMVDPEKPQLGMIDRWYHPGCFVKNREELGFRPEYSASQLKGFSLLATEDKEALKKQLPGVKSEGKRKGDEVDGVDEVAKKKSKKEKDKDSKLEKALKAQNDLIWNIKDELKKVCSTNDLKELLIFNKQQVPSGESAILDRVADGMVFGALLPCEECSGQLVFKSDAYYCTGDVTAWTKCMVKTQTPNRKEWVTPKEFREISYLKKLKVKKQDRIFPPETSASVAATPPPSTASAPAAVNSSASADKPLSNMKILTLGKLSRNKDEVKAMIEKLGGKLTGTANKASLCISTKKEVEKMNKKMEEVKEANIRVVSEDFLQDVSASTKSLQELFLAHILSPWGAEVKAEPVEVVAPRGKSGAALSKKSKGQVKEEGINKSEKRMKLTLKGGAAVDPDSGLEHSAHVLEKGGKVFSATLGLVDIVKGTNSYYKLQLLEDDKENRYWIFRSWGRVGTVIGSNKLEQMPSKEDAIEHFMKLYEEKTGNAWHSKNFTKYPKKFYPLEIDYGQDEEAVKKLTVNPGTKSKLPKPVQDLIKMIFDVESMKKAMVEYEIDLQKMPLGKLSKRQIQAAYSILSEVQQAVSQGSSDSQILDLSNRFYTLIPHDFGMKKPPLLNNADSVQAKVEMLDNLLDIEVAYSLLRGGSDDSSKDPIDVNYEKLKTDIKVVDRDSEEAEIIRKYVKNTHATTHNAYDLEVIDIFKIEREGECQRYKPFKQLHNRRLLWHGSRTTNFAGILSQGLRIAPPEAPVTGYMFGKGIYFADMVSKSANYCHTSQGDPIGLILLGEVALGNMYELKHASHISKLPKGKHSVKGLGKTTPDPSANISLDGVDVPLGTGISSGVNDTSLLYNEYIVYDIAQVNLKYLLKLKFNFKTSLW
UniProt P11103: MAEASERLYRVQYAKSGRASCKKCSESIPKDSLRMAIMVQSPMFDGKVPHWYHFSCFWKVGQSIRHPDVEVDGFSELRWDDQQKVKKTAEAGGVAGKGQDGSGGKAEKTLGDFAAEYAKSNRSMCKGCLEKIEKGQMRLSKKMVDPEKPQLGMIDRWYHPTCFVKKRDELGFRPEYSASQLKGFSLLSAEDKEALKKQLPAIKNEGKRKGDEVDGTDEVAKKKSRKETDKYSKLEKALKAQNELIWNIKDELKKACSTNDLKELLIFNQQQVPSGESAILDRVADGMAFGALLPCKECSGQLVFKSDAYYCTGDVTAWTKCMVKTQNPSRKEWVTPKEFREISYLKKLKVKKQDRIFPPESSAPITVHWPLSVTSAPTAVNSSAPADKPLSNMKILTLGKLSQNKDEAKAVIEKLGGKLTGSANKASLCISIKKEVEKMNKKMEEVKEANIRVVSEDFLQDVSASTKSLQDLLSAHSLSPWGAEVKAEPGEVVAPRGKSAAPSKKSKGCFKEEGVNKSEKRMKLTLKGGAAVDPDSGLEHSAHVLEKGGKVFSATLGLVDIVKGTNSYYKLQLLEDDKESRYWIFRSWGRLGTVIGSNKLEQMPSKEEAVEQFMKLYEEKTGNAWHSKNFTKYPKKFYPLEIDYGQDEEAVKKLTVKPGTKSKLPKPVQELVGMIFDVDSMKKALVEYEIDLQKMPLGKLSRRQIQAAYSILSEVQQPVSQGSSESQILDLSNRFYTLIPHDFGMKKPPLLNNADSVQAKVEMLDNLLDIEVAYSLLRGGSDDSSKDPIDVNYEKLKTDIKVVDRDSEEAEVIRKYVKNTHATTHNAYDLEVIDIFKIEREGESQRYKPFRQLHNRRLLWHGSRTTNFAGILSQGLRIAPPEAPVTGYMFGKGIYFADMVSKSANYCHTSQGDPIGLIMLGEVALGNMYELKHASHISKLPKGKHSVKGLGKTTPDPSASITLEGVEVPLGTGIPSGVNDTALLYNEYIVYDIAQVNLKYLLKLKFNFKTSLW

Assays:
[1] = molecular target: T1, Recombinant human STAT6 (polyHis-tagged) (human) (UniProt P42226); assay: pull-down; Ni-NTA pulldown of polyHis-STAT6 from the cell-free PARylation reaction (recombinant PARP-1, NAD+, 30 min at 37 °C), with or without sheared DNA (DSBs); immunoblot; both purified
T1 sequence: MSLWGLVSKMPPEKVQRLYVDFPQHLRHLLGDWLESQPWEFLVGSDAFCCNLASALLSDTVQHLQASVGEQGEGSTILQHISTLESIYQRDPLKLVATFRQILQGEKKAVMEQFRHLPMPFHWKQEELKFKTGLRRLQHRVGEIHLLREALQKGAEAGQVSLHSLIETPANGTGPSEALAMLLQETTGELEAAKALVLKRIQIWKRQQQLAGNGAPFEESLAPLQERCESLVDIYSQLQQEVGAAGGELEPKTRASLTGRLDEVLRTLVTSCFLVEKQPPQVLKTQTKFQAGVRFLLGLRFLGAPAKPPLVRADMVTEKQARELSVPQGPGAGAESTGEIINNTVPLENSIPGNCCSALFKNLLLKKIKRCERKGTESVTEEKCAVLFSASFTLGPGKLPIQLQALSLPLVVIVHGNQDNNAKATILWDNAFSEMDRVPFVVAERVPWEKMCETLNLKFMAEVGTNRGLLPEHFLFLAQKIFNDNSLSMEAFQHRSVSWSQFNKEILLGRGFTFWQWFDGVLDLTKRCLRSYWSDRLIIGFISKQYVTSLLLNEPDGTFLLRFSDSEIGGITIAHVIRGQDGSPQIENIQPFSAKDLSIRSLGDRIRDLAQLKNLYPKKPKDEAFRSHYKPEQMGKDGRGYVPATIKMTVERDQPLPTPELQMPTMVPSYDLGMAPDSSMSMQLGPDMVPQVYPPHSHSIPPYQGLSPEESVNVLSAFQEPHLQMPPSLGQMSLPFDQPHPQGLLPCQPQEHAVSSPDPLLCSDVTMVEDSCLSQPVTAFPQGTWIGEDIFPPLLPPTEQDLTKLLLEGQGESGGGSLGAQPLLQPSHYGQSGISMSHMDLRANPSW

[2] = molecular target: T2, STAT6 (endogenous, mouse splenocytes) (mouse (endogenous in splenocytes)) (UniProt P52633); assay: co-IP; IP with antibodies to STAT6 from protein extracts of mouse splenocytes, untreated or treated with IL-4 for the indicated times; immunoblot for PARP-1; interaction seen around 8 to 12 h after IL-4
T2 sequence: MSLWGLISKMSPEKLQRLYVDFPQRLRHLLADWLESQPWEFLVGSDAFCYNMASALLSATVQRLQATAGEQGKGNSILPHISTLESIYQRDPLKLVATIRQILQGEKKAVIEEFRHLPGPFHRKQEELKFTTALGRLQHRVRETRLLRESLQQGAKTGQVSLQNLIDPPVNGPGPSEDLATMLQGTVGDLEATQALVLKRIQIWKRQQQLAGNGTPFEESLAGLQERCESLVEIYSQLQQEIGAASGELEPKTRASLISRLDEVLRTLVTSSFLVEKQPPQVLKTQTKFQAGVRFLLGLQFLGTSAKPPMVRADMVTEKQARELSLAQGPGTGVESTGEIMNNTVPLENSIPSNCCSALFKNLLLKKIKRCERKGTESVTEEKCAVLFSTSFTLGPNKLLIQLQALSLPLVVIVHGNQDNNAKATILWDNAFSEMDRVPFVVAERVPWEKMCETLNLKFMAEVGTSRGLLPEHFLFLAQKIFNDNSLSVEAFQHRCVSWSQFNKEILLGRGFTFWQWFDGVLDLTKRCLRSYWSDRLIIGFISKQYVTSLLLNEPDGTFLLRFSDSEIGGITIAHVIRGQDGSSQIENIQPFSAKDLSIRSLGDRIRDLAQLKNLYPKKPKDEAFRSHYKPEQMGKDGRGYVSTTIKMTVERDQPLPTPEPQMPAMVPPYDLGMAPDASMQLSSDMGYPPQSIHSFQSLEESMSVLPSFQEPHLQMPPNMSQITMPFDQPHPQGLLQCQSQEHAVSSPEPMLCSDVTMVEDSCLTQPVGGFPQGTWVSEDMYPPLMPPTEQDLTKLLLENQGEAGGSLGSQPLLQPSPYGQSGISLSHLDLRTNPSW

Substance	binding [1]	binding [2]
Recombinant human PARP-1 (from UniProt P09874 1-1014) (enzyme)	binds	–
PARP-1 (endogenous, mouse splenocytes) (from UniProt P11103 1-1013) (enzyme)	–	binds
